{"source": "PubChem BioAssay AID1259405 (NCATS, 2018)", "assay": "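Mouse-designed siRNAs used to find CHO productivity engineering targets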 (primary screen)", "system": "Chinese hamster CHO-K1 ovary cells with stable secreted eGFP expression", "knock-down reagent": "single siRNA against mouse genes, 0.8 pmol siRNA per well (2 µl of 400 nM stock)", "timing": "3 days", "measured": "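Percent of the per-plate non-targeting control median for intracellular GFP per well by laser scanning cytometry and for cell viability by ATP luminescence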", "direction": "GFP, % of control: higher = more GFP per well, higher productivity; viability (ATP), % of control: higher = more viable cells (more ATP)", "call rule": "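Called active when intracellular GFP, relative to negative control, is at or above 120%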", "note": "This is a random part of about 50,000 reagents. Over the whole deposit, about 4,000 (8%) got an active call. 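Mouse siRNA library applied to hamster cells; one well for each siRNA.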 The numbers tell different reagents against one gene apart."}
{"Gene": "Elovl3 (ELOVL fatty acid elongase 3)", "reagent": 1, "GFP, % of control": 74.5, "viability (ATP), % of control": 78, "Outcome": "inactive"}
{"Gene": "Elovl3 (ELOVL fatty acid elongase 3)", "reagent": 2, "GFP, % of control": 103, "viability (ATP), % of control": 92.7, "Outcome": "inactive"}
{"Gene": "Elovl3 (ELOVL fatty acid elongase 3)", "reagent": 3, "GFP, % of control": 115, "viability (ATP), % of control": 114, "Outcome": "inactive"}
{"Gene": "Mbd1 (methyl-CpG binding domain protein 1)", "reagent": 1, "GFP, % of control": 77.7, "viability (ATP), % of control": 73.4, "Outcome": "inactive"}
{"Gene": "Mbd1 (methyl-CpG binding domain protein 1)", "reagent": 2, "GFP, % of control": 65.9, "viability (ATP), % of control": 66.4, "Outcome": "inactive"}
{"Gene": "Mbd1 (methyl-CpG binding domain protein 1)", "reagent": 3, "GFP, % of control": 75.1, "viability (ATP), % of control": 60.7, "Outcome": "inactive"}
{"Gene": "Kcna6", "reagent": 1, "GFP, % of control": 105, "viability (ATP), % of control": 102, "Outcome": "inactive"}
{"Gene": "Kcna6", "reagent": 2, "GFP, % of control": 55.9, "viability (ATP), % of control": 59.1, "Outcome": "inactive"}
{"Gene": "Kcna6", "reagent": 3, "GFP, % of control": 73.5, "viability (ATP), % of control": 56.4, "Outcome": "inactive"}
{"Gene": "Ganab (alpha glucosidase 2 alpha neutral subunit)", "reagent": 1, "GFP, % of control": 58, "viability (ATP), % of control": 47.3, "Outcome": "inactive"}
{"Gene": "Ganab (alpha glucosidase 2 alpha neutral subunit)", "reagent": 2, "GFP, % of control": 66.6, "viability (ATP), % of control": 102, "Outcome": "inactive"}
{"Gene": "Ganab (alpha glucosidase 2 alpha neutral subunit)", "reagent": 3, "GFP, % of control": 51.8, "viability (ATP), % of control": 59.1, "Outcome": "inactive"}
{"Gene": "Rdh16 (retinol dehydrogenase 16)", "reagent": 1, "GFP, % of control": 53.2, "viability (ATP), % of control": 42.7, "Outcome": "inactive"}
{"Gene": "Rdh16 (retinol dehydrogenase 16)", "reagent": 2, "GFP, % of control": 79.4, "viability (ATP), % of control": 83.2, "Outcome": "inactive"}
{"Gene": "Rdh16 (retinol dehydrogenase 16)", "reagent": 3, "GFP, % of control": 84, "viability (ATP), % of control": 64.5, "Outcome": "inactive"}
{"Gene": "Or10ab5 (olfactory receptor family 10 subfamily AB member 5)", "reagent": 1, "GFP, % of control": 97.1, "viability (ATP), % of control": 91.1, "Outcome": "inactive"}
{"Gene": "Or10ab5 (olfactory receptor family 10 subfamily AB member 5)", "reagent": 2, "GFP, % of control": 77.1, "viability (ATP), % of control": 91.8, "Outcome": "inactive"}
{"Gene": "Or10ab5 (olfactory receptor family 10 subfamily AB member 5)", "reagent": 3, "GFP, % of control": 77.9, "viability (ATP), % of control": 68.1, "Outcome": "inactive"}
{"Gene": "Ifnk (interferon kappa)", "reagent": 1, "GFP, % of control": 68, "viability (ATP), % of control": 76.4, "Outcome": "inactive"}
{"Gene": "Ifnk (interferon kappa)", "reagent": 2, "GFP, % of control": 94.3, "viability (ATP), % of control": 36.1, "Outcome": "inactive"}
{"Gene": "Ifnk (interferon kappa)", "reagent": 3, "GFP, % of control": 64.2, "viability (ATP), % of control": 47.2, "Outcome": "inactive"}

The list goes on, starting with the last 4 of the part before.
{"Gene": "Or10ab5 (olfactory receptor family 10 subfamily AB member 5)", "reagent": 3, "GFP, % of control": 77.9, "viability (ATP), % of control": 68.1, "Outcome": "inactive"}
{"Gene": "Ifnk (interferon kappa)", "reagent": 1, "GFP, % of control": 68, "viability (ATP), % of control": 76.4, "Outcome": "inactive"}
{"Gene": "Ifnk (interferon kappa)", "reagent": 2, "GFP, % of control": 94.3, "viability (ATP), % of control": 36.1, "Outcome": "inactive"}
{"Gene": "Ifnk (interferon kappa)", "reagent": 3, "GFP, % of control": 64.2, "viability (ATP), % of control": 47.2, "Outcome": "inactive"}
{"Gene": "Bicc1 (BicC family RNA binding protein 1)", "reagent": 1, "GFP, % of control": 72.2, "viability (ATP), % of control": 80.1, "Outcome": "inactive"}
{"Gene": "Bicc1 (BicC family RNA binding protein 1)", "reagent": 2, "GFP, % of control": 85.1, "viability (ATP), % of control": 77.5, "Outcome": "inactive"}
{"Gene": "Bicc1 (BicC family RNA binding protein 1)", "reagent": 3, "GFP, % of control": 43.8, "viability (ATP), % of control": 47.8, "Outcome": "inactive"}
{"Gene": "Tsga10 (testis specific 10)", "reagent": 1, "GFP, % of control": 66.7, "viability (ATP), % of control": 46.7, "Outcome": "inactive"}
{"Gene": "Tsga10 (testis specific 10)", "reagent": 2, "GFP, % of control": 45.4, "viability (ATP), % of control": 57.6, "Outcome": "inactive"}
{"Gene": "Tsga10 (testis specific 10)", "reagent": 3, "GFP, % of control": 73.1, "viability (ATP), % of control": 92.8, "Outcome": "inactive"}
{"Gene": "Fam20a (FAM20A, golgi associated secretory pathway pseudokinase)", "reagent": 1, "GFP, % of control": 53.9, "viability (ATP), % of control": 57.3, "Outcome": "inactive"}
{"Gene": "Fam20a (FAM20A, golgi associated secretory pathway pseudokinase)", "reagent": 2, "GFP, % of control": 79.3, "viability (ATP), % of control": 94.6, "Outcome": "inactive"}
{"Gene": "Fam20a (FAM20A, golgi associated secretory pathway pseudokinase)", "reagent": 3, "GFP, % of control": 104, "viability (ATP), % of control": 90.9, "Outcome": "inactive"}
{"Gene": "Tax1bp3 (Tax1 (human T cell leukemia virus type I) binding protein 3)", "reagent": 1, "GFP, % of control": 92.9, "viability (ATP), % of control": 90.5, "Outcome": "inactive"}
{"Gene": "Tax1bp3 (Tax1 (human T cell leukemia virus type I) binding protein 3)", "reagent": 2, "GFP, % of control": 45.5, "viability (ATP), % of control": 47, "Outcome": "inactive"}
{"Gene": "Tax1bp3 (Tax1 (human T cell leukemia virus type I) binding protein 3)", "reagent": 3, "GFP, % of control": 68.6, "viability (ATP), % of control": 47.2, "Outcome": "inactive"}
{"Gene": "Eif4e2 (eukaryotic translation initiation factor 4E member 2)", "reagent": 1, "GFP, % of control": 88.9, "viability (ATP), % of control": 117, "Outcome": "inactive"}
{"Gene": "Eif4e2 (eukaryotic translation initiation factor 4E member 2)", "reagent": 2, "GFP, % of control": 104, "viability (ATP), % of control": 96.6, "Outcome": "inactive"}
{"Gene": "Eif4e2 (eukaryotic translation initiation factor 4E member 2)", "reagent": 3, "GFP, % of control": 72.8, "viability (ATP), % of control": 63.7, "Outcome": "inactive"}
{"Gene": "Gstt2 (glutathione S-transferase, theta 2)", "reagent": 1, "GFP, % of control": 119, "viability (ATP), % of control": 113, "Outcome": "inactive"}
{"Gene": "Gstt2 (glutathione S-transferase, theta 2)", "reagent": 2, "GFP, % of control": 48.2, "viability (ATP), % of control": 37.5, "Outcome": "inactive"}
{"Gene": "Gstt2 (glutathione S-transferase, theta 2)", "reagent": 3, "GFP, % of control": 68.3, "viability (ATP), % of control": 82.7, "Outcome": "inactive"}
{"Gene": "Tfap2c (transcription factor AP-2, gamma)", "reagent": 1, "GFP, % of control": 56.8, "viability (ATP), % of control": 52.9, "Outcome": "inactive"}
{"Gene": "Tfap2c (transcription factor AP-2, gamma)", "reagent": 2, "GFP, % of control": 61.3, "viability (ATP), % of control": 58.7, "Outcome": "inactive"}
{"Gene": "Tfap2c (transcription factor AP-2, gamma)", "reagent": 3, "GFP, % of control": 66.9, "viability (ATP), % of control": 82.1, "Outcome": "inactive"}
